Results on one molecule are retold here after publication PMC4887032.

These are yes or no findings as the source states them, for the method shown. Some results given as binding are weak or reduced against the parent protein; the word gives no strength.

The target in the test is T1, Bacillus amyloliquefaciens YknZ extracellular domain (B. amyloliquefaciens).
T1 sequence: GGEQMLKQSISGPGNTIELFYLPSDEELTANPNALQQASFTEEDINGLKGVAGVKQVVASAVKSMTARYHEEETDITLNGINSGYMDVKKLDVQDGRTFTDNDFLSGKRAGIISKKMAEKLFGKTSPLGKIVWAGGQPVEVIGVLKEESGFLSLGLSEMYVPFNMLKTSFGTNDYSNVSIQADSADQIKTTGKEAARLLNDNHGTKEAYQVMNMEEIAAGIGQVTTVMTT
Description: pull-down; Ba YknZ ED coupled to CNBr-activated resin; 0.6 mg purified YknX with 20 μl resin in 200 μl 20 mM HEPES pH 7.5, 150 mM NaCl, 2 mM 2-mercaptoethanol, 2 h at 277 K; five washes; SDS-PAGE, Coomassie blue; uncoupled resin as control; both purified.

B1: Bacillus amyloliquefaciens YknX (residues 34-378) (domain or fragment, UniProt A0A9P1JGR6 34-378)
chain: GEKVETGTMEKRKISSSVMVPGTLKFSKEQYVFYEADKGTLDKVKVKEGDKVKEGSSLVTYTNEQLNLDKEQNELTEQSKRLQIEQIEEKLRALNSKEKDLAKQVGEAEAQKQIESERTDLQLQQKTAEIELKQSDLQKQSLENQVANLTVKSEMDGTVISVNQEAASKKSDIQEPVIHIGDPEHLIVAGNLSEYDTLKVKKGQSVTITSDAIPDKTWKGRVAAVGLVPEQKSGAASGGNTEQAVQYPFQVKLIGNLPEGKPGFKLIMNIETDKRKADTLPSSAVKKDGDEHWVFTVKDGKAKRVKVKVGDTAKQLTEIKEGLSKDDKVILNPADGLTDGTDVKA
For the molecule B1, the binding entry was “binds”.
